In patent publication US20250121076A1, “POLYPEPTIDE DRUG CONJUGATE HAVING NOVEL STRUCTURE AND APPLICATION THEREOF” (MEDSHINE DISCOVERY INC., priority 2021, published 2025):
Where a name gives a salt, the structure may show the parent alone. At least one peptide structure holds a part that was inferred or is arguable (an end, a ring closure or a residue). Starred links: 1 amine or outer side, 2 acyl side, 3 side chain; linkers in the order of their positions; H or OH if unused. Positions of bridges follow the written chain, without caps; N, C: chain ends. Non-standard residues stand in square brackets, D forms with d. Residues, ends and D or L forms follow the SMILES beside them. Chains are numbered I, II in the order given. *: point of attachment. TATA = O=C(CC[*:1])N1CN(C(=O)CC[*:2])CN(C(=O)CC[*:3])C1; Dolaproine = CO[C@@H]([C@@H]1CCCN1)[C@@H](C)C(=O)O; Dil = CC[C@H](C)[C@H](NC)[C@@H](CC(=O)O)OC; X2 = O=C(CCCC(=O)[*:2])NCCC(=O)[*:1]; PABC = O=C(OCc1ccc(N[*:1])cc1)[*:2]; X1 = C[C@@H](N*)[C@@H](O)c1ccccc1; Hyp = O=C(O)[C@@H]1C[C@@H](O)CN1; hArg = N=C(N)NCCCC[C@H](N)C(=O)O; Cit = NC(=O)NCCC[C@H](N)C(=O)O; Pen = CC(C)(S)[C@H](N)C(=O)O; NMeV = CN[C@H](C(=O)O)C(C)C; Sar = CNCC(=O)O

How the values were obtained:
[1] = system: NCI-H1975; test: In vitro anti-proliferative activity, CellTiter-Glo; format: cell-based, Human; conditions: NCI-H1975, 72 h
Method: (§1) To investigate the effect of the compounds of the present invention on inhibiting cell proliferation by detecting the effect of the compounds on cell activity in vitro in tumor cell lines NCI-H1975 and SK-OV-3.
(§2) The tumor cell lines were cultured in a 37° C., no CO2 incubator and a 37° C., 5% CO2 incubator according to the culture conditions shown in Table 15, respectively. The cells were periodically passaged, and cells in a logarithmic growth phase were taken for plating.
(§3) Cells in a logarithmic growth phase were harvested and centrifuged at 1000 rpm for 3 min at room temperature. The supernatant was discarded, and the cells were resuspended in 5 mL of a culture medium. Then, 20 ul of the cell suspension was pipetted and mixed with trypan blue at 1:1 for staining for 3 min to detect cell viability and to count viable cells. The cell density was adjusted to 4000 NCI-H1975/well or 5000 SK-OV-3/well. Then, 90 μL of the cell suspension was added to each culture plate well, and a cell-free culture medium was added to blank control wells. The culture plate was incubated overnight in a 37° C., no CO2, and 100% relative humidity incubator and a 37° C., 5% CO2, and 100% relative humidity incubator, respectively.
(§4) Preparation of a 400X compound stock plate: The compound to be tested was gradient diluted with DMSO from the highest to the lowest concentration.
(§5) Preparation of a 10X compound working solution: 78 μl of a cell culture medium was added to a V-bottomed 96-well plate, and 2 μL of the compound was pipetted from the 400X compound stock plate into the cell culture medium in the 96-well plate. Then, 2 μL of DMSO was added to vehicle control and blank control. After adding the compound or DMSO, the mixture was blown uniformly with a multichannel pipettor. Then, 10 μL of a DMSO-cell culture medium mixture was added to vehicle control and blank control. The final concentration of DMSO was 0.25%. The 96-well cell plate was placed back into the incubators for 72 h.
(§6) The detection was performed according to the instructions of the Promega CellTiter-Glo Luminescent Cell Viability Assay kit (Promega-G7573). The luminescence signal was detected on the En Vision® Multi-mode Plate Reader (EnVision 2104-10).
(§7) The inhibition rate (IR) of the compound to be tested was calculated using the following formula: IR (%)=(1-(RLU compound-RLU blank control)/(RLU vehicle control-RLU blank control)) * 100%. The inhibition rates of the compounds at different concentrations were calculated in Excel. Then, the inhibition curves were plotted using GraphPad Prism 6.02 software, and the relevant parameters, including the minimum inhibition rate, the maximum inhibition rate, and IC50, were calculated.

[2] = system: SK-OV-3; test: as above; format: cell-based, Human; conditions: SK-OV-3, 72 h
Method: as §1, §2, §3, §4, §5, §6, §7

With `CC[C@H](C)[C@@H]([C@@H](CC(=O)N1CCC[C@H]1[C@H](OC)[C@@H](C)C(=O)N[C@H](C)[C@@H](O)c1ccccc1)OC)N(C)C(=O)[C@@H](NC(=O)[C@H](C(C)C)N(C)C(=O)OCc1ccc(NC(=O)[C@H](CCCNC(N)=O)NC(=O)[C@@H](NC(=O)CCCC(=O)NCCC(=O)N(C)CC(=O)N(C)CC(=O)N(C)CC(=O)N(C)CC(=O)N(C)CC(=O)N(C)CC(=O)N(C)CC(=O)N(C)CC(=O)N(C)CC(=O)N(C)CC(=O)N[C@H]2CCCCNC(=O)C[C@@H](C(=O)N[C@H]3CSCCC(=O)N4CN5CN(C4)C(=O)CCSC(C)(C)[C@@H](C(N)=O)NC(=O)[C@H](CCCCNC(=N)N)NC(=O)[C@H](Cc4c[nH]c6ccccc46)NC(=O)[C@@H](CC(=O)O)NC(=O)[C@@H]4CCCN4C(=O)[C@H](Cc4c[nH]cn4)NC(=O)[C@H](CC(C)C)NC(=O)[C@H](CSCCC5=O)NC(=O)[C@H](CC(C)C)NC(=O)[C@@H]4CCCN4C(=O)[C@H](CC(N)=O)NC(=O)[C@H](C(C)C)NC(=O)[C@H](CC(C)C)NC(=O)[C@@H]4C[C@@H](O)CN4C3=O)NC(=O)[C@H](CCCCNC(=N)N)NC2=O)C(C)C)cc1)C(C)C` [Acetate salt of PDC_8] (I: [Sar][Sar][Sar][Sar][Sar][Sar][Sar][Sar][Sar][Sar]K[hArg]DC[Hyp]LVNPLCLHP[dD]W[hArg][Pen]-NH2 / II: V[Cit][PABC][NMeV]V[Dil][Dolaproine]-X1; lactam I:11-I:13; linker I:14-I:21-I:28 via TATA; linker I:N-II:N via X2) as the compound, how does the “Maximum inhibition rate (%)” value [1] read?
Its value is 52.07%.

What about the “Minimum inhibition rate (%)” value [1] of the same compound?
The value was −0.51%.

What about the “Maximum inhibition rate (%)” value [2] of the same compound?
Its value is 58.46%.

What about the “Minimum inhibition rate (%)” value [2] of the same compound?
The value was 5.71%.
